Earlier results in patent US20020076728A1, “Engineering affinity ligands for macromolecules” (priority 1997, published 2002).

Conditions: side-chain ionizable group of the amino acid type in proteins; cited from earlier work

Structure (SMILES): N[C@@H](Cc1ccc(O)cc1)C(=O)O [Tyr]
- pKa range: 10.0-10.3
